# Test results reported in PMC6652807.
# Sequences of proteins named here, by UniProt entry; tags and fusion partners are left off.
# UniProt Q15910: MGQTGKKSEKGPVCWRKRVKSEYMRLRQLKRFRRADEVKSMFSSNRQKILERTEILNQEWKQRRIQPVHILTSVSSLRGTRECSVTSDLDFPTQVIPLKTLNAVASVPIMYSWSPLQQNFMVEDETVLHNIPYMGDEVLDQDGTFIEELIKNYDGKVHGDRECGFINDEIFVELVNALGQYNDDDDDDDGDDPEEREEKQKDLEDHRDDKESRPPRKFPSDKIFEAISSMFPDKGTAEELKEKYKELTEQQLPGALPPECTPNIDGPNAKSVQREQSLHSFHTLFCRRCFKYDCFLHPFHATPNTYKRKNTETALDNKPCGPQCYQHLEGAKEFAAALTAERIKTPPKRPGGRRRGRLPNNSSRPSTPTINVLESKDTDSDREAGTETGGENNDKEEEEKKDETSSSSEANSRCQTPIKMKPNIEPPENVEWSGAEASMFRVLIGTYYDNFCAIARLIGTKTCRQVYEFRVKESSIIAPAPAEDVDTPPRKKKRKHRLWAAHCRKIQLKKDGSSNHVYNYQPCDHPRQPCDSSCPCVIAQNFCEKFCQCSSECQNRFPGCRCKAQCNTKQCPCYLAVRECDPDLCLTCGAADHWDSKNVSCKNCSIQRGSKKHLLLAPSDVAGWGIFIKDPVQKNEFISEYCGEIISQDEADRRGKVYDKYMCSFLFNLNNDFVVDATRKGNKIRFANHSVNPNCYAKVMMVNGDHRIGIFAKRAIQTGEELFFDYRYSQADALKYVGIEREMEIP
# UniProt Q14680: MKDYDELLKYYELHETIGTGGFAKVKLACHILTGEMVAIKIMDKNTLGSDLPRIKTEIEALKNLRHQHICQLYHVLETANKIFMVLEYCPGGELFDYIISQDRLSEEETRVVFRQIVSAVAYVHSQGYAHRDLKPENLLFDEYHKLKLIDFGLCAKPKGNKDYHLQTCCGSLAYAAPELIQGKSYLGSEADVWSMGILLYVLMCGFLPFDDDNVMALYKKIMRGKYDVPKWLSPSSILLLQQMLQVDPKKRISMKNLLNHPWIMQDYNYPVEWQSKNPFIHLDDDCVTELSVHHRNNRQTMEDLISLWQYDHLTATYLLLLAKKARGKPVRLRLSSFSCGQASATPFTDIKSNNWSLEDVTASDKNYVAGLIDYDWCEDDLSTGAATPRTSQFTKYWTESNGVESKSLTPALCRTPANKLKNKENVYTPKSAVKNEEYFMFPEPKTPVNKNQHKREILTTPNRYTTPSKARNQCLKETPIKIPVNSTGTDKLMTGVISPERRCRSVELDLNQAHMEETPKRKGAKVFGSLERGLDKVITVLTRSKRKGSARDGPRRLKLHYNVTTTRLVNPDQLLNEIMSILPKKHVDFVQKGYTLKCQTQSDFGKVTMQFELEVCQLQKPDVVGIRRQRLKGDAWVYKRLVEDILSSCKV
# Results are given in words; binding and its absence hold for the method and conditions named. In cells and extracts the contact can be indirect. Some results given as binding are weak or reduced against the parent protein; the word gives no strength.
# Biological target: enhancer of zeste homolog 2 (EZH2) (human (endogenous in GSCs from human GBM)) (UniProt Q15910)
# Assay: co-IP; endogenous proteins; antibodies (anti-MELK, EZH2, NF-κB) cross-linked with protein A/G beads, incubated with 500 μg of GSC lysates overnight at 4°C; IgG as negative control; immunoblot of eluates; GSCs cultured with or without serum
substance,measurement,value
maternal embryonic leucine-zipper kinase (MELK) (from UniProt Q14680 1-651),binding,binds
